These results are taken from paper PMC12639495.

Chains of the proteins cited; added tags and fusions are not shown.
UniProt Q92830: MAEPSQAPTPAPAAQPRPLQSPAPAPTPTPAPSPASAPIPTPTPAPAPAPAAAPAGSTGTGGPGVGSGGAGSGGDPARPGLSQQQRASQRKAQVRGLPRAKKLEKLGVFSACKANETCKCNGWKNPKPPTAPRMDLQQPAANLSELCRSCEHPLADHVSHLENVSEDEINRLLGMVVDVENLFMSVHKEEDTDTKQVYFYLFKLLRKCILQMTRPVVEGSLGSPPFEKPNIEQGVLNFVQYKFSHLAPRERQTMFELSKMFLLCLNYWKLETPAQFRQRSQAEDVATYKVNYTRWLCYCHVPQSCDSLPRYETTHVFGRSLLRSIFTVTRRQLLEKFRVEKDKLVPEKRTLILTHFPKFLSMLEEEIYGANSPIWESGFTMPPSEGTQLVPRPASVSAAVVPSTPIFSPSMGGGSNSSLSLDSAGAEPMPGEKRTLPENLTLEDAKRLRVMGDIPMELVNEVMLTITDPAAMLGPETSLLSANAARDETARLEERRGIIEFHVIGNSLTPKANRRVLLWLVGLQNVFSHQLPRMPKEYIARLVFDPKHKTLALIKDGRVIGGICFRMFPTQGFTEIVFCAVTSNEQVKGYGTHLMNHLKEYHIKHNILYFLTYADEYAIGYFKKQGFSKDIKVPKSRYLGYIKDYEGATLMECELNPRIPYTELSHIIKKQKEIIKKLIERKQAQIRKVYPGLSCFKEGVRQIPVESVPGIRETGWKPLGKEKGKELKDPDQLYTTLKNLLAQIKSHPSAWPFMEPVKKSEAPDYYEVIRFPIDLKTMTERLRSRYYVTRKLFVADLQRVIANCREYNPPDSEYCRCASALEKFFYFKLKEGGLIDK
UniProt P37231: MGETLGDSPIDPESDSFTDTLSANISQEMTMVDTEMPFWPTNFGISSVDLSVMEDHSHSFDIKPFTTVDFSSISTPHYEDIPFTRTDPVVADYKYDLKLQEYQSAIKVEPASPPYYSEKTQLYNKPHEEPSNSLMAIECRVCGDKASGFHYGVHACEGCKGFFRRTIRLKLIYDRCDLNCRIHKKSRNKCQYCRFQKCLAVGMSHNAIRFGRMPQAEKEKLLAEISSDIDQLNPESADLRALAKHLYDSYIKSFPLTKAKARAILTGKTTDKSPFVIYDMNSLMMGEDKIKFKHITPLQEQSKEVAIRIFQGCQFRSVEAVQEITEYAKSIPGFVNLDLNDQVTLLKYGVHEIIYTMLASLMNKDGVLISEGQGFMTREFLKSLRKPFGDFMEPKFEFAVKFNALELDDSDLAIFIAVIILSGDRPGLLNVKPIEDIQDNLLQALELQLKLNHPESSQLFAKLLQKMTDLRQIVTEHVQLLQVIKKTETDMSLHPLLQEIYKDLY

Results are given in words; binding and its absence hold for the method and conditions named. In cells and extracts the contact can be indirect. Some entries that bind do so weakly or less than the wild type.

In this test the target is T1, transcriptional coactivator PGC1β (UniProt Q86YN6).
T1 sequence: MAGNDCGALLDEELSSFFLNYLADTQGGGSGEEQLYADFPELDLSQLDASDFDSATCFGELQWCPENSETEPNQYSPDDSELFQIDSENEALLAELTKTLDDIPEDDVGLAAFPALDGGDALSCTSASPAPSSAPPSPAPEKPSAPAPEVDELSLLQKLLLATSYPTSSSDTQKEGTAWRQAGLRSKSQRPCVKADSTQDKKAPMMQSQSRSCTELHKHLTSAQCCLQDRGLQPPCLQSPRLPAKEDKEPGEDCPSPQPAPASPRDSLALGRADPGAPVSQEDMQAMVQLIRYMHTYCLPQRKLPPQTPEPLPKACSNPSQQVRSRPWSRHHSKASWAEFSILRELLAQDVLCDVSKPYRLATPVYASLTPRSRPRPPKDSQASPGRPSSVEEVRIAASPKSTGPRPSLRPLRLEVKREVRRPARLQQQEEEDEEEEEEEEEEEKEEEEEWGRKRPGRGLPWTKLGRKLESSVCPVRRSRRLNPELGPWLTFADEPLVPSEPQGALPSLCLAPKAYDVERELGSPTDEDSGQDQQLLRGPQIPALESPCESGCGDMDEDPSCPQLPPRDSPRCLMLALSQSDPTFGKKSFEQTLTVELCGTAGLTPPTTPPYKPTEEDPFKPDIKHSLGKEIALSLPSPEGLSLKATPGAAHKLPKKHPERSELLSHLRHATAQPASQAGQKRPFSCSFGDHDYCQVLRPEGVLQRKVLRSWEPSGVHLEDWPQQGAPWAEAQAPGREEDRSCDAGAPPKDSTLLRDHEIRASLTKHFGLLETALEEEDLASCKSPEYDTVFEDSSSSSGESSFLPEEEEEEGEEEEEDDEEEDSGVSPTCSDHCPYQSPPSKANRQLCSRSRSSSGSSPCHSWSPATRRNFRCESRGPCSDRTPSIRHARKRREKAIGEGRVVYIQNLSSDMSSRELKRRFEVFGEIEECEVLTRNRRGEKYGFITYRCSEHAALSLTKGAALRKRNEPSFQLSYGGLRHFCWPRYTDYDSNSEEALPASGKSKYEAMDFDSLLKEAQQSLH
Nature of the test: co-IP; antibodies (GCN5, PGC-1β, Ac-Lys, PPARγ; 4 μg) on protein A/G magnetic beads; pre-cleared RIPA lysates, 4 °C for 2 h; five washes with PBS containing 0.25% Tween-20; Western blot; cells with EAS1 knock-down or overexpression. (In western blotting, separated proteins are transferred to a membrane and probed.)

Take “acetyltransferase GCN5 (from UniProt Q92830 1-837)”: the binding entry was “binds”. Take “transcription factor PPARγ (from UniProt P37231 1-505)”: the binding entry was “binds”.
